PMC7819943, “Rice protein-binding microarrays: a tool to detect cis-acting elements near promoter regions in rice”
This is one part of the list.

Sequences of proteins named here, by UniProt entry; tags and fusion partners are left off.
UniProt Q0JBA9, entry or part of it: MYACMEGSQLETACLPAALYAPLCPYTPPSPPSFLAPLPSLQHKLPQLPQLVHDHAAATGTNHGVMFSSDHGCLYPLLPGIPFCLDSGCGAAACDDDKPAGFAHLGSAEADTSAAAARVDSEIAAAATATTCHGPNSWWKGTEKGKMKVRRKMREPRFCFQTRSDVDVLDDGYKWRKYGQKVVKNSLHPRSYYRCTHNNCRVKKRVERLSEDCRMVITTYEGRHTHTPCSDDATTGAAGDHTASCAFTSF

molecular target: OsWRKY34 (Oryza sativa, UniProt Q0JBA9 1-250); assay: protein-binding microarray (RPBM); PBS, 2% BSA, 51.3 ng/ul salmon testes DNA, 50 uM zinc acetate, 200 nM TF, 25 C, 1 h; high values mean tight binding; conditions: protein: recombinant; tags: N-terminal polyhistidine and DsRed monomer fusion (pET32a); label: CyDye5-dUTP incorporated in the synthesized complementary strand; 3' TTTTT single-stranded linker to array surface; dsDNA, one strand shown
Procedure, shortened: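 In PBS with 2% BSA, salmon testes DNA and 50 µM zinc acetate, 200 nM protein was incubated on a custom Agilent array at 25 °C for 1 h and then washed off. The array had been made double-stranded by primer extension with Cy5-dUTP and blocked with 2% BSA. The proteins were transcription factors fused N-terminally to polyhistidine and DsRed, expressed in E. coli BL21-CodonPlus and purified on Ni–NTA. The binding signal is per-feature fluorescence intensity (arbitrary units) from an Axon 4000B scanner.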

| Sequence | binding signal |
| --- | --- |
| CACACCTAGGCCGCCTTTTTCAACCGGGGAGCACACCTTTCGGAGTCACCTAGTGCAG | 10400 fluorescence intensity (a.u.) |
| ACTTCTTTAGGCGTTGACTTCTCCCTTTTCCTTTACTATTCGGAGTCACCTAGTGCAG | 14800 fluorescence intensity (a.u.) |
| TACCGCCGCCGCCGCCGCTGCCCTTGCCGCTATTTCCTCCCGGAGTCACCTAGTGCAG | 8240 fluorescence intensity (a.u.) |
| CTTTTCGCATGCATCTTTCGGCCGCGCTCGCGAGCGCACACGGAGTCACCTAGTGCAG | 10400 fluorescence intensity (a.u.) |
| GCCTCGCACCACCCTGCGCCTTGCTTGCGCCCGCACGCGCCGGAGTCACCTAGTGCAG | 10400 fluorescence intensity (a.u.) |
| ATCTGGTTTTGCGGTTGGGAGATGATTTTGTAATTCGATGCGGAGTCACCTAGTGCAG | 10500 fluorescence intensity (a.u.) |
| GCGTGTTCCTCCTCCTACCTATTCCCGGGCCCGCACGTCACGGAGTCACCTAGTGCAG | 9040 fluorescence intensity (a.u.) |
| ACAGCAAACACATCACACATTAATCAATTCGCCTCCAGCACGGAGTCACCTAGTGCAG | 8260 fluorescence intensity (a.u.) |
| GCCTTTTCGCTATATCTCCCATCTGGTGATTCAGGACTCACGGAGTCACCTAGTGCAG | 9660 fluorescence intensity (a.u.) |
| CAACCTCAAGCCGAAGACCATATCATTGACCACATCTTGCCGGAGTCACCTAGTGCAG | 10700 fluorescence intensity (a.u.) |
| CGCTCCGGCATTTCGTCAAACACCAGACGGGCCCATCTCCCGGAGTCACCTAGTGCAG | 9120 fluorescence intensity (a.u.) |
| TTCCAAGGCCCAATCTTATGAGTCCCCGCGGCCCACCTAACGGAGTCACCTAGTGCAG | 9680 fluorescence intensity (a.u.) |
| AAGAGTGGTGAGGAGATGCAAGTATGGATAGATTACGACCCGGAGTCACCTAGTGCAG | 8340 fluorescence intensity (a.u.) |
| CCGCCCGCCGTCGCTCCGTCCACCGCCCACTGCCGCGCCGCGGAGTCACCTAGTGCAG | 12000 fluorescence intensity (a.u.) |
| CAACCGCAAAACTATATACATGGTCTCTTAACAATACAATCGGAGTCACCTAGTGCAG | 8180 fluorescence intensity (a.u.) |
| GACTCATTTTATAGCTCGCGCGACCGCCTCATCGAGCTGACGGAGTCACCTAGTGCAG | 8730 fluorescence intensity (a.u.) |
| GGCCACCACCACCGCCCGCGCGCCACACCTATAAAACCTCCGGAGTCACCTAGTGCAG | 9310 fluorescence intensity (a.u.) |
| TTCTTGACTTCTTGCCAGTGCTGTTGTACATCTCAATCCACGGAGTCACCTAGTGCAG | 9360 fluorescence intensity (a.u.) |
| CTGCAGGCTGCAGCATGCCACTTCAGGTTGACTTTACCACCGGAGTCACCTAGTGCAG | 9040 fluorescence intensity (a.u.) |
| CACCACATGTTTTGTCACAGTCGTCACATGTCTCATCTCTCGGAGTCACCTAGTGCAG | 15000 fluorescence intensity (a.u.) |
| GATCTATGTGTTTTGAATGTGTGATTTTATGGCTGGGTTTCGGAGTCACCTAGTGCAG | 12700 fluorescence intensity (a.u.) |

Taken from above:
binding signal with GCCTCGCACCACCCTGCGCCTTGCTTGCGCCCGCACGCGCCGGAGTCACCTAGTGCAG reads 10400 fluorescence intensity (a.u.)
binding signal with CAACCGCAAAACTATATACATGGTCTCTTAACAATACAATCGGAGTCACCTAGTGCAG reads 8180 fluorescence intensity (a.u.)

Next entries:

| Sequence | binding signal |
| --- | --- |
| CTAATACTCCATGTGTATAACCATTATCCATTTCATCTAACGGAGTCACCTAGTGCAG | 9590 fluorescence intensity (a.u.) |
| CATGGCCCCACCGCTCAGTGACACGGCAGTTCTCGTTTTGCGGAGTCACCTAGTGCAG | 9180 fluorescence intensity (a.u.) |
| GCTTCGGTTCCCCGTTTCCGCCTGTGCCGTGGCCACCGAGCGGAGTCACCTAGTGCAG | 8160 fluorescence intensity (a.u.) |
| CTTCTACTGCTGCTTCTCCTCAACCTCTTCTTCTTCTTCCCGGAGTCACCTAGTGCAG | 9320 fluorescence intensity (a.u.) |
| CCGTTTGTTTTTTTTCCTTCTTCAAATATATATATATATACGGAGTCACCTAGTGCAG | 13200 fluorescence intensity (a.u.) |
| TTCCGACTTCATATTTCGCTTATGCTCATACTTTTCAGCCCGGAGTCACCTAGTGCAG | 8360 fluorescence intensity (a.u.) |
| AGTGACCAATCATTAGGTGATAAATCCCATATGCTTTTGTCGGAGTCACCTAGTGCAG | 8210 fluorescence intensity (a.u.) |
| TTAGCTTAATTATTACAAATTGTTGACTTTTTAAAATCATCGGAGTCACCTAGTGCAG | 9860 fluorescence intensity (a.u.) |
| ACATTCACAGTTGCTATAGTTGTTGCTGCCACTGCCTATTCGGAGTCACCTAGTGCAG | 10900 fluorescence intensity (a.u.) |
| CACTCCACCATTGTCATCTTTACTATCGGTAATTGTTGATCGGAGTCACCTAGTGCAG | 8440 fluorescence intensity (a.u.) |
| CGCTACCTGCTCGCGCGGGAGCTCGTGGGCCCACCCGCGCCGGAGTCACCTAGTGCAG | 8840 fluorescence intensity (a.u.) |
| GCCGCCACGACACCCTTGTCCTCCTGCTCCGTAGCAGCCTCGGAGTCACCTAGTGCAG | 9140 fluorescence intensity (a.u.) |
| TTCACTTGTATTTTTCCATATCGCTTCCATTTTAAGCTGACGGAGTCACCTAGTGCAG | 14600 fluorescence intensity (a.u.) |
| TCCATGGCTCATATTGTCTTCGAGTACTCCCATCGATCGACGGAGTCACCTAGTGCAG | 11400 fluorescence intensity (a.u.) |
| ACTAAGGCCTTTATGCTTGTGGGAGGGATTAAACGAAATTCGGAGTCACCTAGTGCAG | 14100 fluorescence intensity (a.u.) |
| ACTCTAGCAACAAACTCTATGCATACACTATCCCCACTATCGGAGTCACCTAGTGCAG | 8210 fluorescence intensity (a.u.) |
| AATGTGATTCTTGTCGGATGCATGCTGTTGTTTCTCAGAACGGAGTCACCTAGTGCAG | 11400 fluorescence intensity (a.u.) |
| TCTTCTTGTAGAGGGCTATGAATGATCCTGACTTTTATCTCGGAGTCACCTAGTGCAG | 8950 fluorescence intensity (a.u.) |
| ATGTCCAAATTTATTGTTCAATGGCTGATCTGTCCTTTTTCGGAGTCACCTAGTGCAG | 8380 fluorescence intensity (a.u.) |
| ATTGAAGGTCTGCCTGTTTCAGATCATGCTTCTTGTATTTCGGAGTCACCTAGTGCAG | 8960 fluorescence intensity (a.u.) |
| TTCATATCCCTTAATCCGTTCGTCCGATTGCCTCCGTTCCCGGAGTCACCTAGTGCAG | 10200 fluorescence intensity (a.u.) |
